{"source": "patent US9056842B2", "about": "“Cosmetic use of substituted amino heterocylic carbamoyl analogs and related compounds” (Avon Products, Inc., priority 2011, dated 2015)", "test_system": "Human dermal fibroblasts", "test": "Stimulation of collagen synthesis, procollagen type I C-peptide (PIP) EIA on conditioned medium", "type": "cell-based", "details": "compound at 0.0005%, 48-hour incubation, versus DMSO control", "experimental": "Human dermal fibroblasts (Cascade Biologics, Portland, Oreg.) were plated at 10,000 cells/well in 96-well culture plates in supplemented medium (DMEM, 10% Fetal Bovine Serum, 1% Penicillin/Streptomycin and 1% L-Glutamine) overnight in humidified atmosphere of 10% CO2 at 37° C. […] DMSO solution was used a control. Following 48-hour incubation, the plates were removed from the incubator and the medium from each well was collected for the procollagen assay. Collagen production was measured using procollagen type I C-peptide (PIP) EIA kit (Takara Bio, Inc., Japan). […] The ELISA plate was incubated at 37° C. for 3 hours before the wells were washed four times with 400 μl of 1×PBS. At the end of wash, 100 μl of substrate solution (supplied with kit) was added to the wells and incubated at room temperature for 15 minutes. The reaction was stopped by adding 100 μl of 1N sulfuric acid to the wells. The absorbance was measured on a spectrophotometer at 450 nm wavelength. The amount of procollagen peptide in the conditioned medium was calculated from the standard curve. The stimulation of collagen production was shown as an increase in collagen over the control.", "note": "For at least one compound, name, drawing or mass did not settle the structure.", "data": [{"smiles": "CCOCCCNC(=O)c1coc(CN(CCCOCC)C(=O)c2ccc(Cl)cc2)n1", "note": "[Compound 2]", "values": [{"measurement": "stimulation of collagen synthesis (in words)", "result": "potent stimulators of collagen synthesis"}]}]}
